# Some of the results follow.
# Chains of the proteins cited; added tags and fusions are not shown. Lines headed by an entry give the natural chain unless they say otherwise; changes in a name come on top.
# UniProt P60842, whole entry, looked up: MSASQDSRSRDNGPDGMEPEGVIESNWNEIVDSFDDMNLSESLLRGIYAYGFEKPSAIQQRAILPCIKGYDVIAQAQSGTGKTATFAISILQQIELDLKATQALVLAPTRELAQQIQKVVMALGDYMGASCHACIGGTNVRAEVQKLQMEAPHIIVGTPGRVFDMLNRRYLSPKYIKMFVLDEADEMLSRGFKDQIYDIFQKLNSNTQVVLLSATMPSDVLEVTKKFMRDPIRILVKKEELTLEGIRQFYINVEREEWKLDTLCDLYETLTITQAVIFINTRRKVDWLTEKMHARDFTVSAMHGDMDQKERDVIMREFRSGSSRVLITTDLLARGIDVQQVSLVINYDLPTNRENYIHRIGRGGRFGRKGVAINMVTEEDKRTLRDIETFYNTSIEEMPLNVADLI
# UniProt P07992: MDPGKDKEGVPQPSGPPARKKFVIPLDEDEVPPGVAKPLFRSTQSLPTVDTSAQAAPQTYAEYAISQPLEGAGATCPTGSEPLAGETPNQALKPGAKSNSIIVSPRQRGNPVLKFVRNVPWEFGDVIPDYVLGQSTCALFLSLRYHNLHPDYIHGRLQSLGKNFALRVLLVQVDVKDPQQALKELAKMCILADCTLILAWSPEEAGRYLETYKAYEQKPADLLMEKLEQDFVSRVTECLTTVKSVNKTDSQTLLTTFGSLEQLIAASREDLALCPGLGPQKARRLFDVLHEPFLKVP
# UniProt P42566: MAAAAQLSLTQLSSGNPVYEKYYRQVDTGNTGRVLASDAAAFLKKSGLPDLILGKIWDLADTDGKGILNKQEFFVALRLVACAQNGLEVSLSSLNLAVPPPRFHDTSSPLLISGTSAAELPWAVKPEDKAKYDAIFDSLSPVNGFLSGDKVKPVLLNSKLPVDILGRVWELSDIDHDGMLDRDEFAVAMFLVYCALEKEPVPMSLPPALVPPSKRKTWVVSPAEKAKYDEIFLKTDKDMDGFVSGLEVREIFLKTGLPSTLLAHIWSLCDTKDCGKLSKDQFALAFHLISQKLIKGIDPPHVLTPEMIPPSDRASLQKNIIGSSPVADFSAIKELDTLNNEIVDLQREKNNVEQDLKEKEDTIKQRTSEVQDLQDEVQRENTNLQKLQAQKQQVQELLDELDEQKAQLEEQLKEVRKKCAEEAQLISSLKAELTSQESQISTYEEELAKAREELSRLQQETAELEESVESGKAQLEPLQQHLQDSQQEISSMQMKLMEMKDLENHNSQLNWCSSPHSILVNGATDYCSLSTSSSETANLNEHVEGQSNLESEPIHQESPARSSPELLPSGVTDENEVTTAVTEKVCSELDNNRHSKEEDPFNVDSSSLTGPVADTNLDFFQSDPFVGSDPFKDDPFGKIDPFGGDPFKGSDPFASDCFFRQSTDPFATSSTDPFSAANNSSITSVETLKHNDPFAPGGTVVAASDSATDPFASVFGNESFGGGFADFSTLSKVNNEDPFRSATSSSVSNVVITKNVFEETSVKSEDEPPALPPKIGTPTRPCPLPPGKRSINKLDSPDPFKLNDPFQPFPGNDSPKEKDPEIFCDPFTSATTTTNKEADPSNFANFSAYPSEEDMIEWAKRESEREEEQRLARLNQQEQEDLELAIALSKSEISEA
# UniProt P54852: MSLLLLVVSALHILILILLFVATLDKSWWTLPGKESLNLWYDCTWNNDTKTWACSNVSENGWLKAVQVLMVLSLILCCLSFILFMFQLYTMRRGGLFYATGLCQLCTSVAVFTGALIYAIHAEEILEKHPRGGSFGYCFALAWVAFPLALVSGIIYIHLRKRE
# UniProt O43414: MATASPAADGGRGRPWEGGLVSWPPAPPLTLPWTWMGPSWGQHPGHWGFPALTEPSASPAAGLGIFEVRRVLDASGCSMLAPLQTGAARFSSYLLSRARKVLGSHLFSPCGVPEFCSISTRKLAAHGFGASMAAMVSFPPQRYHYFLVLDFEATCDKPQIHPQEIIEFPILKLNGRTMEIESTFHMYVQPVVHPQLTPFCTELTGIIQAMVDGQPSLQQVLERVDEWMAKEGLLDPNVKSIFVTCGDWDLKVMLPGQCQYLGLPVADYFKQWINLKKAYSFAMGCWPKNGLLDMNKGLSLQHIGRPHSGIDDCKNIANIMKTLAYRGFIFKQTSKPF
# UniProt Q9UBC2: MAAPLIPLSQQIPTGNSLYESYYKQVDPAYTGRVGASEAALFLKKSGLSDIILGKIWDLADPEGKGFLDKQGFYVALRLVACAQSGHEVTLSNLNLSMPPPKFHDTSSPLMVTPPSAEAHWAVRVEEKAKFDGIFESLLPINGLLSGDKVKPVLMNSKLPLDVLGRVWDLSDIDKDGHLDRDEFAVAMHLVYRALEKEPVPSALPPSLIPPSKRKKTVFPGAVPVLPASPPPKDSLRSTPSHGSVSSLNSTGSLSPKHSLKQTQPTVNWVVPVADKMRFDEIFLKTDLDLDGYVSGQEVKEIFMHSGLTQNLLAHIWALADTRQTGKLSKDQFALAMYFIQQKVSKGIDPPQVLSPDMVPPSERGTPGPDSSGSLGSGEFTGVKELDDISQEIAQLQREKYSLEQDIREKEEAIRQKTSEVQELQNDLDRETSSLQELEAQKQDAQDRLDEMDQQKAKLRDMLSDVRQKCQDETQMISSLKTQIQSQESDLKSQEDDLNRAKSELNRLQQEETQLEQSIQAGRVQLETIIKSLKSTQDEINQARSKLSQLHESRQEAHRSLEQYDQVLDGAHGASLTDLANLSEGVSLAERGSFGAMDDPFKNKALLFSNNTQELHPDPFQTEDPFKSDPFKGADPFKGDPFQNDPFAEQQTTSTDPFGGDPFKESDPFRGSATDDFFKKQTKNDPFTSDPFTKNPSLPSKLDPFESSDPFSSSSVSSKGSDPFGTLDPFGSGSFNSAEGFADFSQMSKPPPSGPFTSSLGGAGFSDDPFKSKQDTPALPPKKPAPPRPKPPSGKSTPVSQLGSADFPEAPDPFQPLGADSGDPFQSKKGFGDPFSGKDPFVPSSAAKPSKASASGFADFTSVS
# UniProt P34913, whole entry, looked up: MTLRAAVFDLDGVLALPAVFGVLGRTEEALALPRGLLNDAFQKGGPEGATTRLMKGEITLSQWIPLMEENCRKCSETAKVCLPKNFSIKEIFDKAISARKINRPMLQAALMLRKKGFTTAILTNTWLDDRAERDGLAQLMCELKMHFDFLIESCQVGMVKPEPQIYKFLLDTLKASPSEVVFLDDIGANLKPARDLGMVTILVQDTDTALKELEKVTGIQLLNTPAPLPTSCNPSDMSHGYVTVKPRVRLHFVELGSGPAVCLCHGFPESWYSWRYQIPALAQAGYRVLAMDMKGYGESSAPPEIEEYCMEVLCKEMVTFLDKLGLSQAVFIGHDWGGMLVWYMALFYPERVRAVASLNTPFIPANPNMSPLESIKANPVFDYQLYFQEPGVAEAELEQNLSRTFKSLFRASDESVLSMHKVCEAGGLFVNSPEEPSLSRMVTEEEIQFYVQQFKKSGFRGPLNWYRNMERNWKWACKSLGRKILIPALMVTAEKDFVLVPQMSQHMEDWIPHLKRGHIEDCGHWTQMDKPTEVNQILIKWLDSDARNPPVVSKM
# UniProt Q32P44: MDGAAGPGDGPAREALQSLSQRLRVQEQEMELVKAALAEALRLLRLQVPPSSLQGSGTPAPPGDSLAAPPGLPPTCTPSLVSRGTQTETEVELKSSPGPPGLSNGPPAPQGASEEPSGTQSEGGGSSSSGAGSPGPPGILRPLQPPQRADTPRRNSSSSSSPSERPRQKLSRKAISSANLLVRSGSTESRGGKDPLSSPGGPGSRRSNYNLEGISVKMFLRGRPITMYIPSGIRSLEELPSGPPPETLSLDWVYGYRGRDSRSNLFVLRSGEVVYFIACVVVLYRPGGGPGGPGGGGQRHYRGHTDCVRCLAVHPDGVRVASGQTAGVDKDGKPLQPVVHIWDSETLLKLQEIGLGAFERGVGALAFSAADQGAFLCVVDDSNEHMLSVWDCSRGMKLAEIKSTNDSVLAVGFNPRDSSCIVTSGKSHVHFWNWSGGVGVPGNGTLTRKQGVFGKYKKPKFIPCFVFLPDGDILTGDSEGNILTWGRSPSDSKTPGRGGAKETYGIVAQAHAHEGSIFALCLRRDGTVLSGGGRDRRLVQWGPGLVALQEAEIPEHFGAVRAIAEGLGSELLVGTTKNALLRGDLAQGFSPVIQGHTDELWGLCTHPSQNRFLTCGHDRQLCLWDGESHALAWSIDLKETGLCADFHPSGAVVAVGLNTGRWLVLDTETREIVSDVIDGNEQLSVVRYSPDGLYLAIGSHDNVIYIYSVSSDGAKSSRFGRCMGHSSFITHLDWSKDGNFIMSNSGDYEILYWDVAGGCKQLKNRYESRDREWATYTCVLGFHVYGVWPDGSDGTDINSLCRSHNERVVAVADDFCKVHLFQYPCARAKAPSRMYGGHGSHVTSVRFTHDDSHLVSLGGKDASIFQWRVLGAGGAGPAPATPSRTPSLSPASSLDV
# UniProt Q14240, whole entry, looked up: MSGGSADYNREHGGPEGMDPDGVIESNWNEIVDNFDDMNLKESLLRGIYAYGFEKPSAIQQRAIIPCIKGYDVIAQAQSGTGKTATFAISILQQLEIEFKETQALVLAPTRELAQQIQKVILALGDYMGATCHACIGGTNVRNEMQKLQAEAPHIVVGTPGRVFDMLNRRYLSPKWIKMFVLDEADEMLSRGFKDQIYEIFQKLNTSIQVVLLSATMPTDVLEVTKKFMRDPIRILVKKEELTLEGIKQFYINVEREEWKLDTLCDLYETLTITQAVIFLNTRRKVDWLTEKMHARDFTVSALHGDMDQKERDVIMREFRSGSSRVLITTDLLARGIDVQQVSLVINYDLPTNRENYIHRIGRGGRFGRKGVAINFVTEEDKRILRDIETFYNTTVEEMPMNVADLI
# UniProt Q92556, whole entry, looked up: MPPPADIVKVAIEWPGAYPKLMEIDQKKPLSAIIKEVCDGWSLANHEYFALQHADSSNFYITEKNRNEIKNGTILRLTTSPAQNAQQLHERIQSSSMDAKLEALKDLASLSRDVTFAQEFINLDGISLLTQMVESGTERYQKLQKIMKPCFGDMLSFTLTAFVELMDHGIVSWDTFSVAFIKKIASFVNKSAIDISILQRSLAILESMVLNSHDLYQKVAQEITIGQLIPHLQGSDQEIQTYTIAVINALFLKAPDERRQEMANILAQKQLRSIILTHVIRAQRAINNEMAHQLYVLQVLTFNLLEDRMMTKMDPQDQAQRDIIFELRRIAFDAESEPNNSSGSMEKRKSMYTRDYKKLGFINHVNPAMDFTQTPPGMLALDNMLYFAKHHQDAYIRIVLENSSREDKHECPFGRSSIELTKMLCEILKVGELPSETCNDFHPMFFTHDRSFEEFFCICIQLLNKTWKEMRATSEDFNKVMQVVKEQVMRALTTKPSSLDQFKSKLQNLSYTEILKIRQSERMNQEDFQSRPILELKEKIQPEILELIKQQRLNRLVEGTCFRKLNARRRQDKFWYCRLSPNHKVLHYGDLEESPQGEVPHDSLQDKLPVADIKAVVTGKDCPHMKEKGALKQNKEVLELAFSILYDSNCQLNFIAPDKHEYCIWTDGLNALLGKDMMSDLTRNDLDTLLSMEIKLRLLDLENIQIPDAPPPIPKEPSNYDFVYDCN
# UniProt Q9P0I2: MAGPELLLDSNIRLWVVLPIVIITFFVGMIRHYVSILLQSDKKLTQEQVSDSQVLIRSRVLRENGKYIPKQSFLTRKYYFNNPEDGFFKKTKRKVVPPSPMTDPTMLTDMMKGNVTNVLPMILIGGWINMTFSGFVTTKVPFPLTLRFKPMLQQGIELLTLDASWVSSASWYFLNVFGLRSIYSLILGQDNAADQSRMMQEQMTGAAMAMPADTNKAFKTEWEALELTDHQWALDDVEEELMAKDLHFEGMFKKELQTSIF
# UniProt O00303, whole entry, looked up: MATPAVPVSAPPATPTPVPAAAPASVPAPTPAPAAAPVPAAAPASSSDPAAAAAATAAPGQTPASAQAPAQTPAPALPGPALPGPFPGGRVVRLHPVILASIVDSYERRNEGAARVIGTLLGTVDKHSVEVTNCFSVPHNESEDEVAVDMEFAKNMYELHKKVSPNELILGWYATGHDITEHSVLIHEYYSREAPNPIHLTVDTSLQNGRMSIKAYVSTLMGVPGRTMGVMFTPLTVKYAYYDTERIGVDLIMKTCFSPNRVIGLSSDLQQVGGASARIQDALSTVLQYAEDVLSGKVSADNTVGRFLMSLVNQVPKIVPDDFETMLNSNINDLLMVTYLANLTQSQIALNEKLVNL
# UniProt Q969X5: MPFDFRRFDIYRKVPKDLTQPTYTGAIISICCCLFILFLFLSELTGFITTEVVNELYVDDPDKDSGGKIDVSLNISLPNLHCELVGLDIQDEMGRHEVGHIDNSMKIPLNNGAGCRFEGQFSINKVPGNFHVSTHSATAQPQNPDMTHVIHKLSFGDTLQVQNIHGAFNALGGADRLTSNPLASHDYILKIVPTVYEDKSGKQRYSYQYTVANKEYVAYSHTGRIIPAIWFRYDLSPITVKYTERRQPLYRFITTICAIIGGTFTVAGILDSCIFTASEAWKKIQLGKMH
# How the values were obtained:
# Test in all cases: log2 fold change, soluble protein after heating vs DMSO (PISA); higher = thermal stabilisation; K562 lysate, 10 uM; active = over 0.2 and 3.5 SD of the protein, either way, in both replicates (recomputed)
# lapatinib = compound: CS(=O)(=O)CCNCc1ccc(-c2ccc3ncnc(Nc4ccc(OCc5cccc(F)c5)c(Cl)c4)c3c2)o1 [lapatinib]
# Procedure, shortened: (§1)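 Soluble protein was defined as the supernatant remaining after 21,000xg for 90 min, following pooling of heated aliquots and adjustment to 0.5% NP-40 at 4°C. Before that, crude K562 extract at 1 mg/mL protein in PBS pH 7.4 with 1 mM MgCl2 was treated with 10 μM compound for 30 min and heated for 3 min across 48°C-58°C. Quantification used TMTpro 16plex LC-MS/MS with channel sums equalised, and values are log-two fold changes in thermal stability relative to solvent controls from duplicates.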
# pictilisib = compound: CS(=O)(=O)N1CCN(Cc2cc3nc(-c4cccc5[nH]ncc45)nc(N4CCOCC4)c3s2)CC1 [pictilisib]
# Procedure, shortened: as §1
# crizotinib = compound: C[C@@H](Oc1cc(-c2cnn(C3CCNCC3)c2)cnc1N)c1c(Cl)ccc(F)c1Cl [crizotinib]
# Procedure, shortened: as §1
# [1] = compound: C[C@H](C1=CC=C(C=C1)C(=O)NC2=C3C=CNC3=NC=C2)N
# Procedure, shortened: as §1
# duvelisib = compound: C[C@H](Nc1ncnc2nc[nH]c12)c1cc2cccc(Cl)c2c(=O)n1-c1ccccc1 [duvelisib]
# Procedure, shortened: as §1
# gandotinib = compound: Cc1cc(Nc2cc(CN3CCOCC3)c3nc(C)c(Cc4ccc(Cl)cc4F)n3n2)n[nH]1 [gandotinib]
# Procedure, shortened: as §1
# tozasertib = compound: Cc1cc(Nc2cc(N3CCN(C)CC3)nc(Sc3ccc(NC(=O)C4CC4)cc3)n2)n[nH]1 [tozasertib]
# Procedure, shortened: as §1
# doramapimod = compound: Cc1ccc(-n2nc(C(C)(C)C)cc2NC(=O)Nc2ccc(OCCN3CCOCC3)c3ccccc23)cc1 [doramapimod]
# Procedure, shortened: as §1
# bafetinib = compound: Cc1ccc(NC(=O)c2ccc(CN3CC[C@H](N(C)C)C3)c(C(F)(F)F)c2)cc1Nc1nccc(-c2cncnc2)n1 [bafetinib]
# Procedure, shortened: as §1
# [2] = compound: Cc1cccc(CC(=O)N2CCc3c2ccc(-c2cn(C)c4ncnc(N)c24)c3F)n1
# Procedure, shortened: as §1
# nilotinib = compound: Cc1cn(-c2cc(NC(=O)c3ccc(C)c(Nc4nccc(-c5cccnc5)n4)c3)cc(C(F)(F)F)c2)cn1 [nilotinib]
# Procedure, shortened: as §1
# [3] = compound: Cc1nc(Nc2n[nH]c3c2CN(C(=O)N[C@H](CN(C)C)c2ccccc2)C3(C)C)c2sccc2n1
# Procedure, shortened: as §1
# dasatinib = compound: Cc1nc(Nc2ncc(C(=O)Nc3c(C)cccc3Cl)s2)cc(N2CCN(CCO)CC2)n1 [dasatinib]
# Procedure, shortened: as §1
# [4] = compound: Cc1ncc(-c2ccnc(Nc3ccc(S(C)(=O)=O)cc3)n2)n1C(C)C
# Procedure, shortened: as §1
# [5] = compound: Cn1cc(-c2ccc3c(c2)CCN3C(=O)Cc2cccc(C(F)(F)F)c2)c2c(N)ncnc21
# Procedure, shortened: as §1
# quisinostat = compound: Cn1cc(CNCC2CCN(c3ncc(C(=O)NO)cn3)CC2)c2ccccc21 [quisinostat]
# Procedure, shortened: as §1
# tipifarnib = compound: Cn1cncc1[C@@](N)(c1ccc(Cl)cc1)c1ccc2c(c1)c(-c1cccc(Cl)c1)cc(=O)n2C [tipifarnib]
# Procedure, shortened: as §1
# [6] = compound: NC(=O)Nc1cc(-c2cccc(F)c2)sc1C(=O)N[C@H]1CCCNC1
# Procedure, shortened: as §1
# [7] = compound: NC(=O)c1cnc(N[C@@H]2CCCC[C@@H]2N)nc1Nc1cccc(-n2nccn2)c1
# Procedure, shortened: as §1
# [8] = compound: NC1(c2ccc(-c3nc4ccn5c(=O)[nH]nc5c4cc3-c3ccccc3)cc2)CCC1
# Procedure, shortened: as §1
Target,log2 fold change (lapatinib),log2 fold change (pictilisib),log2 fold change (crizotinib),log2 fold change [1],log2 fold change (duvelisib),log2 fold change (gandotinib),log2 fold change (tozasertib),log2 fold change (doramapimod),log2 fold change (bafetinib),log2 fold change [2],log2 fold change (nilotinib),log2 fold change [3],log2 fold change (dasatinib),log2 fold change [4],log2 fold change [5],log2 fold change (quisinostat),log2 fold change (tipifarnib),log2 fold change [6],log2 fold change [7],log2 fold change [8]
EIF4A1 (UniProt P60842),inactive: -0.027,inactive: 0.001,inactive: -0.058,inactive: -0.036,inactive: 0.003,inactive: -0.008,inactive: -0.036,inactive: -0.006,inactive: -0.012,inactive: 0.031,inactive: 0,inactive: -0.013,inactive: -0.006,inactive: 0.008,inactive: -0.003,inactive: -0.06,inactive: 0.009,inactive: 0.028,inactive: -0.004,inactive: -0.014
"ENO1, A0A2R8YEM5",inactive: -0.016,inactive: -0.037,inactive: 0.017,active: -0.469,inactive: 0,inactive: 0.185,inactive: 0.001,inactive: -0.006,inactive: 0.036,active: 0.244,inactive: -0.021,inactive: -0.017,inactive: -0.013,inactive: 0.002,inactive: -0.021,inactive: -0.005,inactive: 0.053,inactive: -0.026,inactive: 0.002,inactive: -0.008
ERCC1 (UniProt P07992),inactive: -0.007,inactive: -0.002,inactive: 0.037,inactive: 0.04,inactive: 0.002,inactive: 0.044,inactive: -0.148,inactive: -0.073,inactive: -0.049,inactive: 0.043,inactive: -0.013,inactive: 0.054,inactive: -0.043,inactive: -0.044,inactive: -0.052,inactive: 0.097,inactive: -0.007,inactive: 0.021,inactive: 0.043,inactive: 0.012
EPS15 (UniProt P42566),inactive: 0.007,inactive: -0.016,inactive: 0.022,inactive: -0.015,inactive: 0.016,inactive: -0.004,inactive: -0.007,inactive: -0.015,inactive: -0.011,inactive: 0.003,inactive: -0.014,inactive: 0.01,inactive: 0.037,inactive: -0.002,inactive: 0.028,inactive: 0.036,inactive: -0.014,inactive: -0.04,inactive: -0.022,inactive: -0.003
EMP3 (UniProt P54852),inactive: 0,inactive: -0.03,inactive: -0.002,active: -0.763,inactive: 0,active: 0.351,inactive: -0.078,inactive: 0.029,inactive: -0.019,active: 0.329,inactive: 0.007,inactive: 0.094,inactive: -0.046,inactive: 0.02,inactive: -0.046,inactive: -0.144,inactive: 0.031,inactive: 0.013,inactive: -0.035,inactive: -0.008
ERCC6L (UniProt Q2NKX8),inactive: -0.019,inactive: -0.014,inactive: -0.01,inactive: 0.024,inactive: -0.034,inactive: -0.074,inactive: -0.003,inactive: 0.01,inactive: -0.056,inactive: -0.027,inactive: 0.025,inactive: 0.021,inactive: -0.015,inactive: -0.019,inactive: 0.022,inactive: -0.051,inactive: -0.029,inactive: 0.047,inactive: 0.021,inactive: -0.023
ERI3 (UniProt O43414),inactive: 0.014,inactive: -0.023,inactive: -0.049,inactive: -0.065,inactive: 0.012,inactive: 0.027,inactive: 0.012,inactive: 0.024,inactive: 0,inactive: 0.057,inactive: -0.01,inactive: 0.017,inactive: 0.013,inactive: 0.017,inactive: -0.013,inactive: -0.06,inactive: 0.004,inactive: 0.011,inactive: -0.007,inactive: -0.069
EPS15L1 isoform 2 (UniProt Q9UBC2),inactive: 0.025,inactive: 0.009,inactive: 0.029,inactive: -0.016,inactive: 0.011,inactive: 0.017,inactive: -0.014,inactive: 0.012,inactive: -0.002,inactive: -0.045,inactive: 0.005,inactive: -0.011,inactive: 0.02,inactive: 0.04,inactive: -0.009,inactive: -0.014,inactive: 0.018,inactive: -0.004,inactive: 0.008,inactive: -0.013
EPHX2 (UniProt P34913),inactive: -0.031,inactive: -0.019,inactive: 0.061,inactive: 0.008,inactive: -0.031,inactive: 0.057,inactive: 0.116,inactive: -0.079,inactive: 0.131,inactive: 0.012,inactive: 0.097,inactive: -0.036,inactive: 0.005,inactive: 0.027,inactive: 0.007,inactive: 0.02,inactive: 0.021,inactive: -0.036,inactive: -0.021,inactive: -0.015
EIF3G (UniProt K7ER90),inactive: 0,inactive: -0.223,inactive: -0.255,inactive: -0.219,inactive: -0.004,inactive: 0,inactive: -0.046,inactive: 0.137,inactive: -0.033,inactive: 0.19,inactive: -0.028,inactive: -0.079,inactive: -0.025,inactive: 0.036,inactive: 0.026,inactive: -0.314,inactive: -0.055,inactive: -0.005,inactive: 0.05,inactive: -0.033
EML3 (UniProt Q32P44),inactive: -0.015,inactive: -0.003,inactive: 0.002,inactive: -0.037,inactive: -0.024,inactive: 0.029,inactive: 0.002,inactive: 0.028,inactive: -0.035,inactive: 0.028,inactive: -0.008,inactive: 0.021,inactive: 0.005,inactive: -0.041,inactive: -0.013,inactive: -0.012,inactive: -0.007,inactive: 0.005,inactive: 0.006,inactive: 0.013
EIF4A2 isoform 2 (UniProt Q14240),inactive: -0.012,inactive: -0.008,inactive: -0.001,inactive: -0.062,inactive: 0.004,inactive: 0.024,inactive: -0.004,inactive: 0.013,inactive: 0.013,inactive: 0.035,inactive: 0.036,inactive: -0.015,inactive: 0.004,inactive: -0.014,inactive: 0.006,inactive: 0.031,inactive: 0.023,inactive: -0.013,inactive: -0.014,inactive: 0.015
ELMO1 (UniProt Q92556),inactive: 0.01,inactive: -0.013,inactive: -0.152,inactive: -0.051,inactive: 0.032,inactive: -0.011,inactive: -0.055,inactive: 0.156,inactive: -0.183,inactive: 0.058,inactive: -0.115,inactive: 0.018,inactive: -0.07,inactive: 0.038,inactive: -0.135,inactive: -0.134,inactive: -0.295,inactive: 0.033,inactive: -0.035,inactive: 0.023
EMC3 (UniProt Q9P0I2),inactive: -0.031,inactive: 0.004,inactive: 0.01,inactive: 0.004,inactive: 0.014,inactive: -0.043,inactive: 0.06,inactive: -0.029,inactive: -0.06,inactive: 0.054,inactive: 0.01,inactive: 0.008,inactive: -0.034,inactive: 0.036,inactive: 0.03,inactive: 0.055,inactive: 0.015,inactive: 0.018,inactive: 0.039,inactive: -0.016
EIF3F (UniProt O00303),inactive: 0.004,inactive: -0.018,inactive: 0.005,inactive: 0.141,inactive: -0.022,inactive: -0.065,inactive: 0.021,inactive: 0.015,inactive: -0.038,inactive: -0.014,inactive: -0.023,inactive: -0.01,inactive: -0.039,inactive: 0.006,inactive: 0.023,inactive: 0.006,inactive: -0.005,inactive: 0.01,inactive: -0.005,inactive: -0.025
ERGIC1 (UniProt Q969X5),inactive: -0.005,inactive: 0.018,inactive: 0.005,inactive: -0.018,inactive: 0.023,inactive: 0.008,inactive: 0.029,inactive: -0.034,inactive: -0.059,inactive: 0.04,inactive: -0.011,inactive: 0.047,inactive: 0.027,inactive: -0.008,inactive: 0.019,inactive: -0.001,inactive: -0.026,inactive: 0.038,inactive: 0.019,inactive: -0.003

# In another format: results already given
Target | log2 fold change (lapatinib) | log2 fold change (pictilisib) | log2 fold change (crizotinib) | log2 fold change [1] | log2 fold change (duvelisib) | log2 fold change (gandotinib) | log2 fold change (tozasertib) | log2 fold change (doramapimod) | log2 fold change (bafetinib) | log2 fold change [2] | log2 fold change (nilotinib) | log2 fold change [3] | log2 fold change (dasatinib) | log2 fold change [4] | log2 fold change [5] | log2 fold change (quisinostat) | log2 fold change (tipifarnib) | log2 fold change [6] | log2 fold change [7] | log2 fold change [8]
EMC3 (UniProt Q9P0I2) | inactive: -0.031 | inactive: 0.004 | inactive: 0.01 | inactive: 0.004 | inactive: 0.014 | inactive: -0.043 | inactive: 0.06 | inactive: -0.029 | inactive: -0.06 | inactive: 0.054 | inactive: 0.01 | inactive: 0.008 | inactive: -0.034 | inactive: 0.036 | inactive: 0.03 | inactive: 0.055 | inactive: 0.015 | inactive: 0.018 | inactive: 0.039 | inactive: -0.016
EIF3F (UniProt O00303) | inactive: 0.004 | inactive: -0.018 | inactive: 0.005 | inactive: 0.141 | inactive: -0.022 | inactive: -0.065 | inactive: 0.021 | inactive: 0.015 | inactive: -0.038 | inactive: -0.014 | inactive: -0.023 | inactive: -0.01 | inactive: -0.039 | inactive: 0.006 | inactive: 0.023 | inactive: 0.006 | inactive: -0.005 | inactive: 0.01 | inactive: -0.005 | inactive: -0.025

# Source: the supplement of paper PMC10849652
